From paper PMC9243176, “Multifaceted regulation of the sumoylation of the Sgs1 DNA helicase” (The Journal of Biological Chemistry, 2022)
For at least one entry, the source does not settle the construct or the ends of the probe. For some assays here: Weaker means in comparison with the reference protein, sequence or condition of that experiment. For some assays here: Tags and fusion partners may be left off the protein sequences shown. For some assays here: At least one verdict was read from the data and is not stated in words by the source.

Tests used:
[1] = target: T1, Esc2 (Saccharomyces cerevisiae) (UniProt Q06340); test: EMSA; conditions: 5-80 nM Esc2, 5 nM DNA; 35 mM Tris-HCl pH 7.5, 1 mM DTT, 100 ug/ml BSA, 5 mM MgCl2, 130 mM KCl, 30 C, 10 min; native PAGE in TAE (6.5% STR and E3, 7% Esc2); recombinant protein
T1 sequence (looked up, limits assumed): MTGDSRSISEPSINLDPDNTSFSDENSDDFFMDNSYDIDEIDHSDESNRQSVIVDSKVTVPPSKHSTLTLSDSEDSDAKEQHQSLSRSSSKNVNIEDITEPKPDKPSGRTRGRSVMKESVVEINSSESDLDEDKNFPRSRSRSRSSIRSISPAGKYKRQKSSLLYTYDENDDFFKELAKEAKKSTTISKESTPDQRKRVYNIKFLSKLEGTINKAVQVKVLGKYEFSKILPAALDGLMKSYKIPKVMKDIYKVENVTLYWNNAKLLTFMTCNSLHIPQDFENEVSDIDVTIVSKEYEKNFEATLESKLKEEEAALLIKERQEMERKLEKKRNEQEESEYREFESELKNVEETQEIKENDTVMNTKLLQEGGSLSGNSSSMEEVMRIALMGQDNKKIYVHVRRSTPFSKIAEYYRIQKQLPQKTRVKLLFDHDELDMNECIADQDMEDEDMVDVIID

Mms21 + Smc5 = test: EMSA; conditions: 5-40 nM E3, 5 nM DNA, moderate DNA binding; 35 mM Tris-HCl pH 7.5, 1 mM DTT, 100 ug/ml BSA, 5 mM MgCl2, 130 mM KCl, 30 C, 10 min; native PAGE in TAE (6.5% STR and E3, 7% Esc2); recombinant protein

TTGATAAGAGGTCATTTGAATTCATGGCTTAGAGCTTAATTGCTGAATCTGGTGCTGGGATCCAACATGTTTTAAATATG (double strand) [dsDNA (H3/H4)]
binding result [1]: binds more weakly
binding result (Mms21 + Smc5): binds
